Data as given in PubChem BioAssay AID504786 (Drosophila RNAi Screening Center, 2011)

- Aim: 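Fly genes required for HIF-dependent transcription when hypoxia is mimicked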 (primary screen)
- Cells: Drosophila S2 cells with a stable HIF luciferase reporter
- Reagents: long dsRNA against Drosophila genes, about 0.2 µg dsRNA per well of a 384-well plate
- Duration: three days of knock-down, then 20 h of DFO before reading
- Challenge: desferrioxamine (DFO) at 100 µM, an iron chelator that mimics hypoxia, for 20 h
- Measurement: 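HIF reporter luminescence in cells given 100 µM DFO for 20 h, using the mouse ldh-a hypoxia-response element, scored as per-plate z-scores; higher means greater loss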
- Reading the numbers: z-score: higher = stronger loss of HIF reporter signal
The screen tested about 21,000 reagents; this is a random part of those that have a named target and a result. 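Primary screen; positive scores mean lost reporter signal, so the sign may be inverted from the usual convention.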 Not all columns of the deposit are shown.

Which result is listed for Rilpl (GeneID 31090) [DRSC18494]?
z-score, replicate 1: -0.2

For CG4324 (GeneID 37830) [DRSC04462], what does the deposit list?
z-score, replicate 1: -0.1

Which result is listed for Cpr (GeneID 33883) [DRSC03293]?
z-score, replicate 1: -0.3

What is on record for M6 (GeneID 40383) [DRSC11869]?
z-score, replicate 1: -0.3

How did the screen score Rpn1 (GeneID 40174) [DRSC11274]?
z-score, replicate 1: 5.8

How did the screen score AMPKalpha (GeneID 43904) [DRSC18714]?
z-score, replicate 1: -0.6

Which result is listed for Pp4-19C (GeneID 45031) [DRSC20559]?
z-score, replicate 1: -1

What is on record for Pp4-19C (GeneID 45031) [DRSC21251]?
z-score, replicate 1: -1

With slou (GeneID 42547) [DRSC17058], what does the deposit list?
z-score, replicate 1: -0.3

With ths (GeneID 36258) [DRSC06153], how do the results read?
z-score, replicate 1: 1.7

For Ccdc58 (GeneID 40159) [DRSC10218], what was measured?
z-score, replicate 1: -0.3

With CG7798 (GeneID 36798) [DRSC07047], how do the results read?
z-score, replicate 1: -0.3

What is on record for teq (GeneID 39048) [DRSC10298]?
z-score, replicate 1: 0

For teq (GeneID 39048) [DRSC11301], what was measured?
z-score, replicate 1: 0

How did the screen score teq (GeneID 39048) [DRSC11302]?
z-score, replicate 1: -0.3

What is on record for D2hgdh (GeneID 31184) [DRSC18577]?
z-score, replicate 1: -0.3

With Crtp (GeneID 44276) [DRSC04604], how do the results read?
z-score, replicate 1: -0.3

A portion taken from the entries so far:
teq (GeneID 39048) [DRSC11301] | z-score, replicate 1 = 0
teq (GeneID 39048) [DRSC11302] | z-score, replicate 1 = -0.3
D2hgdh (GeneID 31184) [DRSC18577] | z-score, replicate 1 = -0.3
Crtp (GeneID 44276) [DRSC04604] | z-score, replicate 1 = -0.3

Further results:
For Ip259 (GeneID 34419) [DRSC03352], what does the deposit list?
z-score, replicate 1: 0.3

With Rcd5 (GeneID 38478) [DRSC08180], what was measured?
z-score, replicate 1: 1.1

With Cyp4d14 (GeneID 45706) [DRSC18457], what was measured?
z-score, replicate 1: -0.2

For Mdr65 (GeneID 38726) [DRSC11220], how do the results read?
z-score, replicate 1: -0.2

For Ent2 (GeneID 33921) [DRSC02124], what does the deposit list?
z-score, replicate 1: -0.2

Which result is listed for Or2a (GeneID 31207) [DRSC18690]?
z-score, replicate 1: -0.1

For Cpr67Fb (GeneID 39225) [DRSC10314], how do the results read?
z-score, replicate 1: -0.3

How did the screen score CG4213 (GeneID 33209) [DRSC00641]?
z-score, replicate 1: -0.4

Which result is listed for CG33096 (GeneID 326251) [DRSC14440]?
z-score, replicate 1: -0.1

For CG18094 (GeneID 35232) [DRSC02655], what does the deposit list?
z-score, replicate 1: -0.3
